Results: PubChem BioAssay AID1918957 (Molecular Pharmacology Branch, DTP, NCI, 2023)
“And” between values parts separate entries of the source, which are not always exact repeats. Equal entries are not always repeated. Further values from the same series stand in other lists.

Test system: NCI-H1876 complex spheroid viability
Experiment: Anticancer human tumor NCI-H1876 cell line growth inhibition [LSD1];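 further: spheroids exposed to compounds for one week before readout; 100% = DMSO vehicle-treated spheroids so lower means fewer viable cells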
Settings: stronger effect = lower value
Source text: Multicellular complex tumor spheroid response to LSD1 Inhibitor Iadademstat in combination with a variety of drugs and investigational agents in selected tumor cell lines
The current study was undertaken to assess response to LSD1 inhibitors in combination with standard-of-care drugs and investigational agents in solid tumor complex spheroid models as well as in the K-562 leukemia. Complex spheroids include a stromal component modeled by human endothelial cells (HUVEC) and fibroblasts modeled by human mesenchymal stem cells (MSCs). The concentration ranges selected for each drug and investigational agent were based upon clinically achievable concentrations if the clinical Cmax of the agent was known.
Compounds. The drugs and investigational agents used in this study are listed on Table 1. All of the agents used, including staurosporine (NSC755774) and gemcitabine (NSC613327), were obtained from the Developmental Therapeutics Program, NCI. FDA-approved anticancer drugs are available from the NCI at http://dtp.nci.nih.gov/branches/dscb/oncology_drugset_explanation.html. Drugs and investigational agents were >95% pure by proton nuclear magnetic resonance (NMR) and liquid chromatography/mass spectrometry (LC/MS). […] If the clinical Cmax for an agent had not been determined, the highest concentration tested was 10 microM. […]

NC1CCC(NC2CC2c2ccccc2)CC1 (configuration not stated)
viability, T/C (compound 0.316 µM): 104% [middle of 22 runs]
viability, T/C (compound 10 µM): 93.7% and 96.2%
